In paper doi:10.1101/2023.01.03.522548:
Results are given in words; binding and its absence hold for the method and conditions named. Binding seen in cells or lysates may run through a third protein. Some entries that bind do so weakly or less than the wild type. For some of these results: Where a sequence is shown, tags or fusion partners need not be part of it.

Protein sequences, listed by entry. Tags and fused reporters are not part of them.
UniProt Q8N884: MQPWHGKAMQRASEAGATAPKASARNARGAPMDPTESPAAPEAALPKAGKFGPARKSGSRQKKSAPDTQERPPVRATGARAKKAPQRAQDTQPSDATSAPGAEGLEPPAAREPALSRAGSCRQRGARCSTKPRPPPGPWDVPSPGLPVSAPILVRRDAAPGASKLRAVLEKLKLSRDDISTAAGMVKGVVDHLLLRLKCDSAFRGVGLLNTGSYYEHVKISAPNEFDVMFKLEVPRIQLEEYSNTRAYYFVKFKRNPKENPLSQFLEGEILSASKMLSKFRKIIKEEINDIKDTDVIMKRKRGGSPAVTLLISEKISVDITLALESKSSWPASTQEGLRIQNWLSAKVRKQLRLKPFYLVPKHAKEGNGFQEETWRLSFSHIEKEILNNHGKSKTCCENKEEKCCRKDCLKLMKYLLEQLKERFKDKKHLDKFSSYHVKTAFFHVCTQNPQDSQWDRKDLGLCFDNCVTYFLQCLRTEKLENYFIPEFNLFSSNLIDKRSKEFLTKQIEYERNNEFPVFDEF
UniProt Q14258: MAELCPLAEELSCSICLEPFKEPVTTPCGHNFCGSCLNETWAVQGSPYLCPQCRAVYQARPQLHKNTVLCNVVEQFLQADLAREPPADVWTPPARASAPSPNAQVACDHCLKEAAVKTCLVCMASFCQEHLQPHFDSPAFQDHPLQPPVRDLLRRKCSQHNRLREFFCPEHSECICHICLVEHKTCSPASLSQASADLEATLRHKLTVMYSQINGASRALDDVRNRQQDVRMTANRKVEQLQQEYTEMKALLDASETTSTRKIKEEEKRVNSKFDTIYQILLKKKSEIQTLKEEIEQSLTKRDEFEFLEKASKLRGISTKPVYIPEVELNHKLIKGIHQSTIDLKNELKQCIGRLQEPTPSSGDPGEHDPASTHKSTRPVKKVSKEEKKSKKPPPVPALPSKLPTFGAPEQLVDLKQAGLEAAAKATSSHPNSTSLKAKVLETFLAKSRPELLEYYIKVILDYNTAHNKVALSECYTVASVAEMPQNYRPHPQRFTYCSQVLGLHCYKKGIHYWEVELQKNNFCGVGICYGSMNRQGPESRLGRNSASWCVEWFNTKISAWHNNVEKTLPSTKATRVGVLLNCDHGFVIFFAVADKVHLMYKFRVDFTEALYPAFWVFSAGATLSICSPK

How the values were obtained:
Test in all cases: co-IP
[1] = target: T1, Myc-HERC5 (human) (UniProt Q9UII4)
T1 sequence: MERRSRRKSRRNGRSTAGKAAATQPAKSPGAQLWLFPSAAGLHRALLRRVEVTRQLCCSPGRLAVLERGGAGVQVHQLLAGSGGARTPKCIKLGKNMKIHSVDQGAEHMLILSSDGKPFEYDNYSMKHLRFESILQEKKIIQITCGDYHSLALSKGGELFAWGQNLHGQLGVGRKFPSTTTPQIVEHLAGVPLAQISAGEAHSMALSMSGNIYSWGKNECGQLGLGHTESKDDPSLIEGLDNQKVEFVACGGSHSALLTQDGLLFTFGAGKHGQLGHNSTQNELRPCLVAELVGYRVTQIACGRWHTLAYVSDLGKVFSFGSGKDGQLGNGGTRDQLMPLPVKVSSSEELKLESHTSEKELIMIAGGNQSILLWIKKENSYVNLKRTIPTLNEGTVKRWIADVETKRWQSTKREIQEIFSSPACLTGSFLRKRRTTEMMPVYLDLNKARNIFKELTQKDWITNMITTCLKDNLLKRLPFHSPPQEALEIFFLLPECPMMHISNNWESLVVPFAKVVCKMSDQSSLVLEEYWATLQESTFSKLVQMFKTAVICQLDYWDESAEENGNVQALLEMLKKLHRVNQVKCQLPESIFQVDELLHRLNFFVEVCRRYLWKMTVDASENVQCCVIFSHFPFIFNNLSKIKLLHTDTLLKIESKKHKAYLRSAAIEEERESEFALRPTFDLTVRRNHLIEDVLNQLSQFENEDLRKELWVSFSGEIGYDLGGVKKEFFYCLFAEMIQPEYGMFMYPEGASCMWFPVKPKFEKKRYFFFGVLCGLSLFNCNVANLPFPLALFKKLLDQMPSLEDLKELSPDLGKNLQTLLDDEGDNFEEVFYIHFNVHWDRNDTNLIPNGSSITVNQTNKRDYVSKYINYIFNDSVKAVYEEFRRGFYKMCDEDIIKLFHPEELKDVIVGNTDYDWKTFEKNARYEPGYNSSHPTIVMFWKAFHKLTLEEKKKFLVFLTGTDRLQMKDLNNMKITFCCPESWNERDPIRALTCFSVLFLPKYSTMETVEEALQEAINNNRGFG

[2] = target: Flag-cGAS (human) (UniProt Q8N884)
[3] = target: T2, Flag-tagged HERC5 (human) (UniProt Q9UII4)
T2 sequence: T1 sequence

[4] = target: T3, HERC5 (endogenous, interferon-induced) (human (endogenous in HAEC)) (UniProt Q9UII4)
T3 sequence: T1 sequence

## Flag-cGAS (from UniProt Q8N884 1-522)
[1]
  binding: binds

## Myc-EFP (from UniProt Q14258 1-630)
[2]
  binding: binds weakly

## Myc-cGAS (from UniProt Q8N884 1-522)
[3]
  binding: binds

## cGAS (endogenous) (from UniProt Q8N884 1-522)
[4]
  binding: binds
